PubChem BioAssay AID1224830 – NIAID – 2016

- Screen: 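Regulators of TLR4 signalling towards TNF-alpha in macrophage-like cells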 (primary screen)
- Cells: human THP-1 monocytic leukaemia cells, TNF dual-luciferase reporter clone, PMA-differentiated to macrophage-like cells
- Reagents: siRNA pool against human genes, 50 nM
- Duration: LPS for 4 h, given about 3 days after siRNA transfection
- Conditions: bacterial LPS (TLR4 ligand), 10 ng/ml
- Detection: 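TNF firefly reporter luminescence divided by renilla, normalised to the plate median, then turned into a robust z-score for each replicate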
- Scale: TNF reporter robust z-score: higher = stronger TNF reporter response to LPS
- Active means: 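a well is active when its z-score exceeds 2.8 or falls below -1.5; control wells carry no call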
This is a random part of about 18,000 reagents. About 2,900 of them (16%) were called active. 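Calls are made per well; low scores hint the gene aids the LPS response, high scores that it dampens it.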 Repeated entries: four replicate wells of each siRNA pool. Reagent sequences are not shown.

target	TNF reporter robust z-score	outcome
BNIP1	1.21	inactive
BNIP1	1.64	inactive
BNIP1	1.11	inactive
BNIP1	2.13	inactive
NTHL1	-0.98	inactive
NTHL1	-0.45	inactive
NTHL1	-1.18	inactive
NTHL1	0.11	inactive
DEFB106B	0.28	inactive
DEFB106B	0.08	inactive
DEFB106B	0.7	inactive
DEFB106B	0.4	inactive
POM121L2	2.26	inactive
POM121L2	-0.11	inactive
POM121L2	-0.18	inactive
POM121L2	1.81	inactive
U2AF1	-0.65	inactive
U2AF1	0.73	inactive
U2AF1	0.15	inactive
U2AF1	-0.24	inactive
TDO2	-1.09	inactive
TDO2	-0.49	inactive
TDO2	-1.11	inactive
TDO2	-0.07	inactive
FAM43A	-1.2	inactive
FAM43A	-1.18	inactive
FAM43A	-1	inactive
FAM43A	-0.86	inactive
IL1R2	2.29	inactive
IL1R2	2.65	inactive
IL1R2	2.77	inactive
IL1R2	2.21	inactive
JADE1	-0.33	inactive
JADE1	0.5	inactive
JADE1	-0.86	inactive
JADE1	0.72	inactive
COA5	1.89	inactive
COA5	1.69	inactive
COA5	1.37	inactive
COA5	-0.46	inactive
CCDC12	-1.65	active
CCDC12	-1.84	active
CCDC12	-1.75	active
CCDC12	-1.7	active
PIWIL4	-1.07	inactive
PIWIL4	0.34	inactive
PIWIL4	-0.62	inactive
PIWIL4	0.53	inactive
SNX11	2.81	active
SNX11	1.51	inactive
SNX11	-0.75	inactive
SNX11	-0.61	inactive
PAQR7	1.46	inactive
PAQR7	3.33	active
PAQR7	1.78	inactive
PAQR7	2.99	active
AMPD2	-0.94	inactive
AMPD2	0.35	inactive
AMPD2	0.63	inactive
AMPD2	1.26	inactive
TLE2	-0.9	inactive
TLE2	-1.29	inactive
TLE2	-0.94	inactive
RFX2	0.15	inactive
RFX2	0.99	inactive
RFX2	0.5	inactive
RFX2	-0.07	inactive
GRID1	-0.46	inactive
GRID1	-0.56	inactive
GRID1	0.02	inactive
GRID1	0.55	inactive
MESP1	-0.12	inactive
MESP1	-0.02	inactive
MESP1	0.04	inactive
MESP1	0.56	inactive
PHACTR1	4.51	active
PHACTR1	1.17	inactive
PHACTR1	0.37	inactive
PHACTR1	0.46	inactive
POMGNT1	-0.76	inactive
POMGNT1	-0.54	inactive
POMGNT1	0.03	inactive
POMGNT1	0.05	inactive
TMEM174	-0.85	inactive
TMEM174	-0.88	inactive
TMEM174	-0.72	inactive
TMEM174	0.01	inactive
D2HGDH	1.79	inactive
D2HGDH	2.94	active
D2HGDH	0.96	inactive
D2HGDH	2.44	inactive
AMT	-0.41	inactive
AMT	0.07	inactive
AMT	-1.28	inactive
AMT	-0.62	inactive
SNN	0.91	inactive
SNN	2.22	inactive
SNN	2.48	inactive
SNN	2.03	inactive
TECRL	-0.87	inactive
TECRL	0.27	inactive
TECRL	0.39	inactive
TECRL	1.31	inactive
LRRTM2	1.49	inactive
LRRTM2	3.43	active
LRRTM2	1.21	inactive
LRRTM2	1.11	inactive
LMBR1	-0.75	inactive
LMBR1	-0.12	inactive
LMBR1	0.33	inactive
LMBR1	2.82	active

Part of the list above in another layout:
| target | TNF reporter robust z-score | outcome |
| --- | --- | --- |
| TDO2 | -1.09 | inactive |
| TDO2 | -0.49 | inactive |
| TDO2 | -1.11 | inactive |
| TDO2 | -0.07 | inactive |
| FAM43A | -1.2 | inactive |
| FAM43A | -1.18 | inactive |
| FAM43A | -1 | inactive |
| FAM43A | -0.86 | inactive |
| IL1R2 | 2.29 | inactive |
| IL1R2 | 2.65 | inactive |
| IL1R2 | 2.77 | inactive |
| IL1R2 | 2.21 | inactive |
| JADE1 | -0.33 | inactive |
| JADE1 | 0.5 | inactive |
| JADE1 | -0.86 | inactive |
| JADE1 | 0.72 | inactive |
